# Data reported in the supplement of paper PMC12889115.
# This is one part of the list. Values are raw readings; no control value is given beside them.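 First-pass screen: polymyxin B was added at a level that permeabilizes the Salmonella outer membrane while sparing the inner membrane. DMSO wells, with and without polymyxin B, defined maximum growth. Because plates differed from one another, each plate's data were ranked separately and the compounds with the lowest OD600 were carried forward as hits.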
# Test system: Salmonella enterica serovar Typhimurium SL1344
# Experiment: bacterial growth OD600 after 18 h with compound and polymyxin B; higher = more bacterial growth (less inhibition)
# Details: 50 µM, Mueller-Hinton broth
Compound,bacterial growth OD600 (polymyxin B 1 µg/mL),bacterial growth OD600 (polymyxin B 0.75 µg/mL)
Cc1ccc(Oc2ncccc2CNCc2c(F)cccc2Cl)cn1,0.871,
O=C(CCC1CCCN(Cc2c[nH]cn2)C1)N1CCN(Cc2ccccc2)CC1 (stereo unspecified),0.566,
C1CCC(Nc2nc3nonc3nc2NCCCN2CCOCC2)C1,0.84,
CC(Cn1cncn1)NC(=O)c1csc2nc(-c3ccccc3Cl)cn12 (stereo unspecified),0.808,
COc1ccccc1C(C)N(C)C(=O)c1cc(COc2ccccc2F)[nH]n1 (stereo unspecified),,0.534
COc1ccc(CCN(C)C(=O)CN2Cc3ccccc3OC(c3ccccc3OC)C2)cc1OC (stereo unspecified),,0.632
CCOC(=O)C1(Cc2ccc(F)cc2F)CCCN(C(=O)c2cc(C)nn2CC)C1 (stereo unspecified),1.33,
COc1cc(CC2(CCC(=O)N(Cc3c(C)nn(C)c3C)C3CC3)CCC(=O)N2)ccc1F (stereo unspecified),,0.821
CCOC(=O)C1(Cc2ccccc2F)CCCN(C(=O)CCC(=O)OC)C1 (stereo unspecified),0.908,
COc1cccc(C(=O)NCC2CCCN(C(=O)c3cnsn3)C2)c1OC (stereo unspecified),0.919,
C#CCN(CC=C)C(=O)c1ccccc1OC1CCN(C(=O)c2cccnc2)CC1,0.525,
CC(C)CCC(=O)N1CCC(C(=O)Nc2ccc(-c3nc4ccccc4o3)cc2)CC1,,0.866
COc1ccc2ccccc2c1[C@@H]1C[C@H]2CN(C)C(=O)[C@]23CCCN13,0.95,
CCOc1ccc2nc(N3CCC(NC4Cc5ccccc5C4)CC3)nc(C)c2c1,,1.01
CC(C)Cc1nc2cc(NS(=O)(=O)N(C)C)cc(C(=O)NCCCOc3cccnc3)c2n1C,,0.872
CCCCc1nc2cc(C(=O)N(C)CCN3CCOCC3)ccc2o1,0.873,

# 2 compounds picked at random from those above, as already listed:
Compound,bacterial growth OD600 (polymyxin B 1 µg/mL),bacterial growth OD600 (polymyxin B 0.75 µg/mL)
CC(C)Cc1nc2cc(NS(=O)(=O)N(C)C)cc(C(=O)NCCCOc3cccnc3)c2n1C,,0.872
CCCCc1nc2cc(C(=O)N(C)CCN3CCOCC3)ccc2o1,0.873,

# (next part)

Compound,bacterial growth OD600 (polymyxin B 1 µg/mL),bacterial growth OD600 (polymyxin B 0.75 µg/mL)
COc1cc(CC2(CCC(=O)N(C)CCc3ccc(OC)c(OC)c3)CCC(=O)N2)ccc1F (stereo unspecified),,0.832
COc1ccc(-c2noc(CN3CCC(Cc4ccccc4)CC3)n2)c(OC)c1OC,1.15,
CN1CCCCC1C(=O)NCc1cccnc1Oc1ccccc1F (stereo unspecified),0.895,
CN(Cc1cnn(C)c1)C(=O)c1csc2nc(-c3ccc(Cl)cc3)cn12,0.014,
Cc1cccc(OC2CCN(Cc3nc(Cc4ccccc4F)no3)CC2)c1,0.691,
COCCN(Cc1ccc(F)c(OC)c1)CC1CCCN(C2Cc3ccccc3C2)C1 (stereo unspecified),,0.79
Cc1ncc(-c2ccc(F)cc2)c(C2CCCN(C(=O)Cc3ccc(N4CCNC4=O)cc3)C2)n1 (stereo unspecified),,0.824
Cc1c(C(=O)N(Cc2cccc(OCC3CCOC3)c2)Cc2ccccn2)[nH]c2ccc(Cl)cc12 (stereo unspecified),,0.546
COc1cc(OC)c(CN2CC(=O)N(c3ccccc3C)C(C)C2)c(OC)c1 (stereo unspecified),,0.79
O=C1CCC(C(=O)N2CCCCO2)CN1CCc1ccc(Cl)cc1 (stereo unspecified),0.897,
CCC1CN(CC(=O)N2CCC(N3CCOCC3)CC2)Cc2cc(OC)ccc2O1 (stereo unspecified),,0.842
CCOc1ccccc1-c1nc(CN2CCCC2c2nonc2C)c(C)o1 (stereo unspecified),0.712,
O=C(c1cccs1)N1CCC2(CCCN(Cc3ccc(F)cc3)C2=O)C1 (stereo unspecified),0.894,
CCc1cc(CNC(=O)c2cc(OC)ccc2OC2CCN(C3CCCC3)CC2)on1,1.14,
COc1ccc(CN2CCN(CCC(C)C)C(CCO)C2)c(Cl)c1OC (stereo unspecified),0.836,
